## Primary screen of a compound library

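Phenotypic screen: M. tuberculosis growth, glucose 7H9 medium, 3 days; the read-out is not stated. Tested at 500 µM. Direction is inferred from retests: higher values go with more growth inhibition. Size under these conditions: about 18,000 compounds, about 1,400 of them at 50% or above in at least one test.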

The filed quantity is “Percent Effect” (%). How 0% and 100% were set is not recorded. Most values in the screen are low, and negative values occur. This is an unselected part of the compounds tested.

SMILES | effect
CC(C)NC(=O)CCc1ccc(S(=O)(=O)N(C)C)cc1 | 10.62
Nc1nnc(CNc2cc(C3CC(N)C3)ncn2)s1 (centres unmarked) | -1.504
CCCOc1cccc(NCCCS(C)(=O)=O)c1 | 44.13
CCOC(=O)C(C)(N)C(F)(F)F (centres unmarked) | 6.908
CCCn1ncnc1C(C)NC(=O)c1ccc(N)nc1 (centres unmarked) | -7.894
CCCS(=O)(=O)NC1CCN(c2ccncc2Cl)CC1 | 48.98
COc1ccccc1OCCN(C)CC(N)=O | 16.94
CC(N)c1ccc(Br)cc1OCCCO (centres unmarked) | 43.08
NC1CCN(Cc2cscn2)CC1 | -0.1107
O=C(c1cccnc1N1CCCCC1)N1CCCC1 | 14.09
CC(=O)N1CCN(c2ccccc2F)CC1 | 18.18
COc1ccccc1CCC(=O)NCCC1CCOC1 (centres unmarked) | 29.03
O=C(Nc1cc[nH]n1)C1Cc2ccccc2S1 (centres unmarked) | 48.69
COc1cc(NCC2(N(C)C)CCSC2)ncn1 (centres unmarked) | 39.65
Cc1nc(CN(C)C2CCNC2)no1 (centres unmarked) | 0.2091
O=C(C1COCCO1)N1CCc2ccc(Br)cc21 (centres unmarked) | 6.87
O=C(Cc1nc(-c2cccnc2)no1)NCC(F)(F)F | -5.346
CN1CC(NC(=O)COc2cccnc2)CCC1=O (centres unmarked) | -0.6261
O=C(NCCc1nnc2n1CCC2)c1cncc(Br)c1 | 9.247
NCc1ccncc1OCC(F)F | 8.287
CCCc1nnc(NCc2cccnc2)o1 | 6.196
COC(=O)c1ccc(NC(=O)N2CCOC(C)C2)cc1 (centres unmarked) | 4.611
CNC(=O)CN1CCCC1COc1ccccc1 (centres unmarked) | 28.71
Cn1cc(C#N)cc1C(=O)NCC[C@@H]1CCCN1 | 17.47
N#Cc1ccc(CCO)cc1 | 14.92
N#Cc1ccccc1OCC(=O)NC(=O)c1ccco1 | 0.3732
CS(=O)(=O)c1ccccc1NC(=O)CN1CCCCC1 | 36.69
CC1CCCCN1C(=O)c1ccc(CN)cc1 (centres unmarked) | 38.12
COCCOC1CCN(c2nccc3occc23)CC1 | 46.45
COCCNCCn1cnc2c1c(=O)[nH]c(=O)n2C | -7.545
CN(CC1CCC1)C(=O)NC1CCC2(CC1)OCCO2 | 43.79
NCc1nc(-c2cccc(C(F)(F)F)c2)no1 | 65.7
O=C1CC2(CCSC2)C(=O)N1CCc1cccs1 (centres unmarked) | -7.106
Cc1cnc(NC(=O)NCc2ccnn2C)c(Br)c1 | 48.36
CN(C)CCO[C@@H]1COCC[C@H]1NS(C)(=O)=O | 2.098
c1coc(CNCc2ccc3c(c2)OCCO3)c1 | 46.88
Cn1ccc(CNc2ccc(OC(F)F)cn2)c1 | 40.33
O=C(Nc1ccncc1F)N1CCOCC1C1CC1 (centres unmarked) | 7.532
N[C@@H]1CC[C@@H]1NC(=O)COCc1ccccc1 | 8.844
CCC[C@H]1CN(S(=O)(=O)c2cnn(CCC)c2)C[C@@H]1N | 12.07
O=C1Nc2ccc(Cl)cc2NC12CCOC2 (centres unmarked) | 5.914
CCCNC(=O)CNc1cc(F)c(OC)c(F)c1 | 67.17
Cc1ccc(C2NCCNC2=O)cc1 (centres unmarked) | -1.46
Cc1ccc2c(c1)OC(C)CN2S(C)(=O)=O (centres unmarked) | -3.18
COc1ccc(NC(=O)NC2CCN(C)CC2)cc1 | -2.561
CN(C)c1ccc(C(=O)NCC2CCCO2)cc1 (centres unmarked) | 32.03
CC1(C)CCCN1C(=O)NCCCF | 4.603
COc1ccc(C(CNC(C)=O)N2CCCC2)cc1 (centres unmarked) | 34.47
O=C(NCC(O)C1CC1)c1cccnc1C(F)(F)F (centres unmarked) | -9.985
Cc1cc(C(=O)OCc2cncs2)cc(O)n1 | 2.798
O=C1CN(C(=O)COCC2CC2)c2ccccc2N1 | 28.19
c1ccc(CCNCCCN2CCOCC2)cc1 | 24.66
O=C(NCCCn1cccn1)N1CCSCC1 | 28.99
CCN1CCN(CCOc2ccccc2CO)CC1 | 16.82
Fc1ccc2[nH]cnc2c1 | 7.586
CN1CCC(NC(=O)c2coc(Br)c2)CC1=O (centres unmarked) | 59.11
CNc1ccnc(C)c1 | 13.69
NCC1(O)CCCc2ccccc21 (centres unmarked) | -176.5
COc1ccccc1CC(=O)Nc1ncc(C(N)=O)s1 | 63.42
CO[C@H]1CNCC1NC(=O)Cc1cccc(F)c1F (some centres unmarked) | -9.442
c1ncn(CCN2CCOC3(CCCC3)C2)n1 | 1.819
NCC(=O)Nc1ccccc1 | 8.12
Cc1cnccc1CNC(=O)CSCCN1CCCC1 | 12.1
CC[C@H](O)COc1ccc(C(=O)NCC(F)(F)F)cc1 | 30.43
CCC(C)N1CCN(C(=O)c2cccs2)CC1 (centres unmarked) | -2.298
OCc1ncn(-c2ccccc2)n1 | 0.8066
COC(=O)Cc1cccc(NC(=O)CC2CC2)n1 | 0.9946
Cc1ccc2nc(COCC(=O)NCCN)[nH]c2c1 | 12.54
Cc1c(CN2CCSCC2)cccc1NS(C)(=O)=O | 70.48
CC(C)n1[nH]c(-c2ccccc2)cc1=N | 11.64
CCC(=O)NC1CCN(C(=O)c2ccco2)CC1 | 9.187
CC(C)n1cncc1CN1CCN(CCO)CC1 | -17.94
Cc1nn(C)c(C)c1CC(=O)NC(C)c1ccncc1 (centres unmarked) | 4.714
Cc1nnsc1C(=O)Nc1ccccn1 | 16.51
CC(=O)NCCCS(=O)(=O)c1ccc(C)cn1 | 5.82
CN1CCN(CC2CCNCC2)CC1 | -13.79
O=C(CN1CCCCC1=O)Nc1ncc(Cl)s1 | -17.23
CC(C)CNC(=O)CNC(=O)NCC1(C)CCCC1 | 36.32
CCOc1cccc(CN2CCN(CCO)CC2)c1O | 16.65
COc1ccccc1N1CCCC(NC(C)=O)C1=O (centres unmarked) | 4.248
Cn1ncc2c(NCCCS(C)(=O)=O)ncnc21 | -11.82
COc1ccc(C(=O)N2CCCO2)cc1OC | 9.501
COc1ccc(C(=O)Nc2ccn(C)n2)cn1 | 15.64
Cc1ccc(C(N)c2ccccn2)cc1 (centres unmarked) | 51.83
Cc1cccc(CCO)c1 | -1.046

Once more, the final 10:

SMILES,effect
CN1CCN(CC2CCNCC2)CC1,-13.79
O=C(CN1CCCCC1=O)Nc1ncc(Cl)s1,-17.23
CC(C)CNC(=O)CNC(=O)NCC1(C)CCCC1,36.32
CCOc1cccc(CN2CCN(CCO)CC2)c1O,16.65
COc1ccccc1N1CCCC(NC(C)=O)C1=O (centres unmarked),4.248
Cn1ncc2c(NCCCS(C)(=O)=O)ncnc21,-11.82
COc1ccc(C(=O)N2CCCO2)cc1OC,9.501
COc1ccc(C(=O)Nc2ccn(C)n2)cn1,15.64
Cc1ccc(C(N)c2ccccn2)cc1 (centres unmarked),51.83
Cc1cccc(CCO)c1,-1.046

Measurements from “University of Dundee, Small-Polar-MMV Screening Library” (2021), ChEMBL document CHEMBL3988442.